PubChem BioAssay AID504774, Drosophila RNAi Screening Center | 2011
In all, the deposit lists about 23,000 reagents; shown is an unselected part of those with a known target gene and a result. 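Values are quantile-normalised luminescence on an arbitrary scale; higher means more cells surviving MMS.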 Reagents against one gene are numbered here. Names joined by + are all predicted targets of the reagent. Further read-outs or replicates are left out here.

Purpose: 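Fly genes whose loss alters survival after alkylation damage to DNA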 (primary screen)
System: Drosophila Kc167 cells
Reagent: long dsRNA against Drosophila genes, about 0.25 µg dsRNA per well
Timing: about 6 days: 3 days knock-down, then 3 days with or without MMS
Challenge: methyl methanesulphonate 0.004% (w/v) for 3 days after knock-down
Detection: 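Viability in wells given MMS, read as ATP luminescence, normalised by quantiles plate by plate and averaged across replicates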
Reading the numbers: mean viability with MMS: higher = more surviving cells after MMS

| Gene | reagent | mean viability with MMS |
| --- | --- | --- |
| CG6195 | 1 | 3.46e6 |
| EMC8-9 | 1 | 3.56e6 |
| Idgf4 | 1 | 3.52e6 |
| tweek | 1 | 3.43e6 |
| tweek | 2 | 3.41e6 |
| tweek | 3 | 3.10e6 |
| tweek | 4 | 3.35e6 |
| CG7872 | 1 | 3.60e6 |
| Dlip1 | 1 | 3.52e6 |
| Ir67b | 1 | 3.52e6 |
| dco | 1 | 3.24e6 |
| nau | 1 | 3.71e6 |
| Acn | 1 | 3.38e6 |
| Camta | 1 | 3.45e6 |
| Camta | 2 | 3.53e6 |
| Camta | 3 | 3.64e6 |
| Camta | 4 | 3.66e6 |
| Camta | 5 | 3.42e6 |
| Toll-6 | 1 | 3.49e6 |
| CG31087 | 1 | 3.36e6 |
| CG32832 | 1 | 3.54e6 |
| Sgs8 | 1 | 3.47e6 |
| MED28 | 1 | 2.93e6 |
| sphe | 1 | 3.68e6 |
| oxt | 1 | 3.46e6 |
| CG43394 | 1 | 3.26e6 |
| Tbc1d8-9 | 1 | 3.35e6 |
| meso18E | 1 | 3.53e6 |
| Qsox3 | 1 | 3.37e6 |
| CG13614 | 1 | 3.66e6 |
| Ir85a | 1 | 3.59e6 |
| CG3494 | 1 | 3.45e6 |
| DIP-eta | 1 | 3.54e6 |
| CG2202 | 1 | 3.38e6 |
| CG31274 + MESK4 | 1 | 3.45e6 |
| MFS10 | 1 | 3.65e6 |
| Hipk | 1 | 3.29e6 |
| Hipk | 2 | 3.16e6 |
| Hipk | 3 | 3.31e6 |
| CG11141 | 1 | 3.07e6 |
| CG34045 | 1 | 3.56e6 |
| spd-2 | 1 | 3.38e6 |
| CG44153 | 1 | 3.71e6 |
| CG44153 | 2 | 3.37e6 |
| CG44153 | 3 | 3.42e6 |
| CG44153 | 4 | 3.35e6 |
| CG32669 | 1 | 3.38e6 |
| CG15873 | 1 | 3.56e6 |
| CG16894 | 1 | 3.74e6 |
| CG16894 | 2 | 3.29e6 |
| Klp98A | 1 | 3.48e6 |
| Klp98A | 2 | 3.09e6 |
| CG1494 | 1 | 3.49e6 |
| CG10359 | 1 | 3.55e6 |
| r-l | 1 | 3.67e6 |
| r-l | 2 | 3.31e6 |
| CG31522 | 1 | 3.58e6 |
| sqd | 1 | 3.39e6 |
| sqd | 2 | 1.58e6 |
| LManVI | 1 | 3.55e6 |
| RpL27 | 1 | 2.95e6 |
| CG13244 | 1 | 3.44e6 |
| CG34124 | 1 | 3.38e6 |
| Srrm234 | 1 | 3.63e6 |
| Srrm234 | 2 | 3.54e6 |
| fit | 1 | 3.71e6 |
| CG31099 | 1 | 3.30e6 |
| CG12436 (retired record) | 1 | 3.58e6 |
| CG12436 (retired record) | 2 | 3.68e6 |
| CG17917 | 1 | 3.58e6 |
| CG34168 | 1 | 3.59e6 |
| CG8026 | 1 | 3.53e6 |
| CG8026 | 2 | 3.49e6 |
| Indy-2 + CG33934 | 1 | 3.47e6 |
| Indy-2 + CG33934 | 2 | 3.55e6 |
| Set8 | 1 | 3.47e6 |
| Gnptab | 1 | 3.69e6 |
| Alg7 | 1 | 3.66e6 |
| Alg7 | 2 | 3.55e6 |
| CG3163 | 1 | 3.53e6 |
| Mdr49 | 1 | 3.39e6 |
| neur | 1 | 3.81e6 |
| Vtld + CG42529 | 1 | 3.59e6 |
| Elp5 | 1 | 3.55e6 |
| retinin | 1 | 3.67e6 |
| CG6674 | 1 | 3.52e6 |
| GNBP2 | 1 | 3.59e6 |

4 entries from above, reformatted.
r-l #1 | mean viability with MMS: 3.67e6
r-l #2 | mean viability with MMS: 3.31e6
CG31522 | mean viability with MMS: 3.58e6
sqd #1 | mean viability with MMS: 3.39e6
